These are yes or no findings as the source states them, for the method shown. In cells and extracts the contact can be indirect. Some entries that bind do so weakly or less than the wild type. For some of these results: Where a sequence is shown, tags or fusion partners need not be part of it. One block for each molecule: values may come before it.
Key:
[1] = molecular target: T1, NuoE-SPA (NADH:ubiquinone oxidoreductase I, cytoplasmic subunit E, C-terminal SPA tag) (E. coli (endogenous in DY330)) (UniProt P0AFD1); assay: co-IP; aerobically grown DY330 (LB, 30°C overnight); SPA-tagged bait captured from cleared lysate on α-FLAG M2 affinity gel, 4°C 1 h; IP buffer 25 mM TrisHCl pH 7.5, 100 mM KCl, 10 mM MgCl2, 1 mM CaCl2, 0.2 mM EDTA, 1% Triton X-100, 10% glycerol, 0.5 mM DTT; eluted with 3xFLAG peptide; Western blot for RavA and ViaA; repeated in ΔviaA::cat strains for NuoA and NuoF
T1 sequence: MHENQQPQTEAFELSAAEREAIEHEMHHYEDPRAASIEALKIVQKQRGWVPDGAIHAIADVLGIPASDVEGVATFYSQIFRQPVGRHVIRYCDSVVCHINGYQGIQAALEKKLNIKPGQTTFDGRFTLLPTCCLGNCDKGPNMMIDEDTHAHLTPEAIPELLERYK

By UniProt entry, the sequences of proteins in these tests, tags left out. Where a name states a change or a piece, a line headed by the entry shows the natural chain unless it says otherwise.
UniProt P0AFC7: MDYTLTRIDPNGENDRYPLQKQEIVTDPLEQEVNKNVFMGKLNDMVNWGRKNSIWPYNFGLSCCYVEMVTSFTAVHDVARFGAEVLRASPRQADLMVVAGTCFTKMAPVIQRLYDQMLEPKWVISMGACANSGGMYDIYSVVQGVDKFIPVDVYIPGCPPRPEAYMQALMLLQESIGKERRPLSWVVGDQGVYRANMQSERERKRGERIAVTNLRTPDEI
UniProt P31473: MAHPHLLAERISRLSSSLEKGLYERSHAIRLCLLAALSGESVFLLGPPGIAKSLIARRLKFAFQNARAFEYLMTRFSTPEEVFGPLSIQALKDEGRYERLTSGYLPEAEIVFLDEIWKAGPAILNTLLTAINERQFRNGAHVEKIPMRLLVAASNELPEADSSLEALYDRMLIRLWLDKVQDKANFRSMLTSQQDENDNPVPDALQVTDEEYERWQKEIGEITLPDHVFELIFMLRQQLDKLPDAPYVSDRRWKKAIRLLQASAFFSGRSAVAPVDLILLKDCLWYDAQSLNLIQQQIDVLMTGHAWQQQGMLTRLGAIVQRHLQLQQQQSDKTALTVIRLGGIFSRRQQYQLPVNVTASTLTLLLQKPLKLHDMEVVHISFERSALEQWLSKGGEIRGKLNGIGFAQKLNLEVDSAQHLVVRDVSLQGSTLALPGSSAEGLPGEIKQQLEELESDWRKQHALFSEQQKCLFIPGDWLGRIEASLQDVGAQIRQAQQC

[2] = molecular target: T2, NuoF-SPA (NADH:ubiquinone oxidoreductase I, cytoplasmic subunit F, C-terminal SPA tag) (E. coli (endogenous in DY330)) (UniProt P31979); assay: as above
T2 sequence: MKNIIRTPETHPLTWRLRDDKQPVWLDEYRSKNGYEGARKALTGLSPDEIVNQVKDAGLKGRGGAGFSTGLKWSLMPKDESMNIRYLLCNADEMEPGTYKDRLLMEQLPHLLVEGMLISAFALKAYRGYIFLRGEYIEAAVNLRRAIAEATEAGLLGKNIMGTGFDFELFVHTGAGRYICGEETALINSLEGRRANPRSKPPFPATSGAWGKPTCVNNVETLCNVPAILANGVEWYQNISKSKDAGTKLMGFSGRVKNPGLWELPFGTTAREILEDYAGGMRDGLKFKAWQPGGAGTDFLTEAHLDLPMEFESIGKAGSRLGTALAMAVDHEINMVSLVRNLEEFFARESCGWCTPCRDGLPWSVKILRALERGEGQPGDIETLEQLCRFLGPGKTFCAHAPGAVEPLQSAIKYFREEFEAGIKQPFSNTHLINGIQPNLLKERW

[3] = molecular target: T3, NuoA-SPA (NADH:ubiquinone oxidoreductase I, membrane subunit A, C-terminal SPA tag) (E. coli (endogenous in DY330)) (UniProt P0AFC3); assay: as above
T3 sequence: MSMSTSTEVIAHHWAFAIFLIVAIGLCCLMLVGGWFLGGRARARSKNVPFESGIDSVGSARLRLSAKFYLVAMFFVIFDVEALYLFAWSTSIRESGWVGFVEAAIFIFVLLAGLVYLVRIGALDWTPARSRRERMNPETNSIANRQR

[4] = molecular target: NuoB-SPA (NADH:ubiquinone oxidoreductase I, cytoplasmic subunit B, C-terminal SPA tag) (E. coli (endogenous in DY330)) (UniProt P0AFC7); assay: as above
[5] = molecular target: T4, NuoG-SPA (NADH:ubiquinone oxidoreductase I, cytoplasmic subunit G, C-terminal SPA tag) (E. coli (endogenous in DY330)) (UniProt P33602); assay: as above
T4 sequence: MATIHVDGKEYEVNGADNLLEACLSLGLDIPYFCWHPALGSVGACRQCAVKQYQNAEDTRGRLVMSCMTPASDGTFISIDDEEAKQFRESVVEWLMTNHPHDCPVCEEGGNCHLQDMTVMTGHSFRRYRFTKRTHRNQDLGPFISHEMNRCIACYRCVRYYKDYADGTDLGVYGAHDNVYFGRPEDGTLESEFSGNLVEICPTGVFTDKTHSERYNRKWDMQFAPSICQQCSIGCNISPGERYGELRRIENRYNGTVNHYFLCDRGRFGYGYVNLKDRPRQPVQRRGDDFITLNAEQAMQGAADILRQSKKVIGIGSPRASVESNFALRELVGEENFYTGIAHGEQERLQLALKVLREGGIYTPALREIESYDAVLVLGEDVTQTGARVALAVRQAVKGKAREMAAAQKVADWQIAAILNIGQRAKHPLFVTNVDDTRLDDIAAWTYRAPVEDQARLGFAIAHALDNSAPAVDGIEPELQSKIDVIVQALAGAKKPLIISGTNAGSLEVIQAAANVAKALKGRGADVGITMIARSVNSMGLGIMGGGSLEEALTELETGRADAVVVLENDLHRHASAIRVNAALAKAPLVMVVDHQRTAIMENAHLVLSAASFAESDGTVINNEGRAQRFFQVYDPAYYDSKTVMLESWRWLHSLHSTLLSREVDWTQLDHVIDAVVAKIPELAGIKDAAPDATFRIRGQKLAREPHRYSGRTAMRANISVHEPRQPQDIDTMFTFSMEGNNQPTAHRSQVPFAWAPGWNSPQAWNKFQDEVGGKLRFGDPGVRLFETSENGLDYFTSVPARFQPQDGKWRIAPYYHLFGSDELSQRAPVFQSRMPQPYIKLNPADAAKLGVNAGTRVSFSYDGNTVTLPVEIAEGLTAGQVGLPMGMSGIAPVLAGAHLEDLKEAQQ

[6] = molecular target: T5, NuoCD-SPA (NADH:ubiquinone oxidoreductase I, fused cytoplasmic subunit CD, C-terminal SPA tag) (E. coli (endogenous in DY330)) (UniProt P33599); assay: as above
T5 sequence: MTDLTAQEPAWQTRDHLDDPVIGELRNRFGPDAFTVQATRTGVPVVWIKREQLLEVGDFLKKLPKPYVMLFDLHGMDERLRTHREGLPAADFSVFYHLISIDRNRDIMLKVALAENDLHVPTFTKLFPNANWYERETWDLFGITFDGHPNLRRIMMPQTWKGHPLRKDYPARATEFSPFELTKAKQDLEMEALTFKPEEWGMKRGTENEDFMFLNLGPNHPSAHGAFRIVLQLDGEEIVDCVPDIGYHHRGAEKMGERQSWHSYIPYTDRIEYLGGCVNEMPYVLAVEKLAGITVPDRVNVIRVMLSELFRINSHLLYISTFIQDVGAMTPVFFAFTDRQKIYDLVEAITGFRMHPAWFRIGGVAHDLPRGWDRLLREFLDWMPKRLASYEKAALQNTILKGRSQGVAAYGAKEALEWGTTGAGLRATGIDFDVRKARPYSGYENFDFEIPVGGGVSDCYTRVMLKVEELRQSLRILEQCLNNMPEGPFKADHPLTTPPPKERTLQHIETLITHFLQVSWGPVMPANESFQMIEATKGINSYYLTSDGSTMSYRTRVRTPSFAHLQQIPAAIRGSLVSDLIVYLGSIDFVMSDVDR

[7] = molecular target: T5, NuoCD-SPA (NADH:ubiquinone oxidoreductase I, fused cytoplasmic subunit CD, C-terminal SPA tag) (E. coli (endogenous in DY330)); assay: co-IP; anaerobically grown DY330 (LB, 30°C overnight); SPA-tagged bait captured from cleared lysate on α-FLAG M2 affinity gel, 4°C 1 h; same IP buffer; eluted with 3xFLAG peptide; Western blot for RavA and ViaA; repeated in a ΔviaA::cat strain for NuoCD

binding [1]: binds weakly
Molecule: RavA (Regulatory ATPase variant A) (from UniProt P31473 1-498)

binding [2]: binds
binding [3]: binds
binding [4]: binds weakly
binding [5]: binds
binding [6]: binds
binding [7]: binds
B1: ViaA (VWA interacting with AAA+ ATPase) (protein, UniProt P0ADN0 1-483)
chain: MLTLDTLNVMLAVSEEGLIEEMIIALLASPQLAVFFEKFPRLKAAITDDVPRWREALRSRLKDARVPPELTEEVMCYQQSQLLSTPQFIVQLPQILDLLHRLNSPWAEQARQLVDANSTITSALHTLFLQRWRLSLIVQATTLNQQLLEEEREQLLSEVQERMTLSGQLEPILADNNTAAGRLWDMSAGQLKRGDYQLIVKYGEFLNEQPELKRLAEQLGRSREAKSIPRNDAQMETFRTMVREPATVPEQVDGLQQSDDILRLLPPELATLGITELEYEFYRRLVEKQLLTYRLHGESWREKVIERPVVHKDYDEQPRGPFIVCVDTSGSMGGFNEQCAKAFCLALMRIALAENRRCYIMLFSTEIVRYELSGPQGIEQAIRFLSQQFRGGTDLASCFRAIMERLQSREWFDADAVVISDFIAQRLPDDVTSKVKELQRVHQHRFHAVAMSAHGKPGIMRIFDHIWRFDTGMRSRLLRRWRR

Source: publication PMC3893208
